From patent US8859559B2, “Substituted pyrazines and their use in the treatment of disease” (Boehringer Ingelheim International GmbH, priority 2011, dated 2014)
The structures given here were assigned with low confidence; some may be wrong.

Sequences of proteins named here, by UniProt entry; tags and fusion partners are left off.
UniProt Q61180, whole entry: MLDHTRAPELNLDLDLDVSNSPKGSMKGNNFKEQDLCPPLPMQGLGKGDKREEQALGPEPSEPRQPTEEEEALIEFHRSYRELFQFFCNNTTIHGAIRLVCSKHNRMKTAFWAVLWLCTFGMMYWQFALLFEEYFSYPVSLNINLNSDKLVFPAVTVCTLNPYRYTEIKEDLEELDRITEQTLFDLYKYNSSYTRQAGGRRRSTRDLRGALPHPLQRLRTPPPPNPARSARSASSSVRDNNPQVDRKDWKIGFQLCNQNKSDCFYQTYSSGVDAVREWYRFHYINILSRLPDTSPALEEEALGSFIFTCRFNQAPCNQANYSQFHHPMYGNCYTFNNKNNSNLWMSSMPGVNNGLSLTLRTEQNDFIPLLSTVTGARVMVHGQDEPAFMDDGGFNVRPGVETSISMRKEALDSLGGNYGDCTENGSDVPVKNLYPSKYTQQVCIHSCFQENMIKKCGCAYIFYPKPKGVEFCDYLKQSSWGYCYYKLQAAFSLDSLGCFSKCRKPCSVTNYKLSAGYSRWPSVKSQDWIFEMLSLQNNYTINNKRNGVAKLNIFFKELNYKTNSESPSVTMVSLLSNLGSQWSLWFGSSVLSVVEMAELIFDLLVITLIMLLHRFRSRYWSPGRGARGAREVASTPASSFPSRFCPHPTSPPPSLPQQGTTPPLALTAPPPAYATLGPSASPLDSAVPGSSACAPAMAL
UniProt Q9WU38, whole entry: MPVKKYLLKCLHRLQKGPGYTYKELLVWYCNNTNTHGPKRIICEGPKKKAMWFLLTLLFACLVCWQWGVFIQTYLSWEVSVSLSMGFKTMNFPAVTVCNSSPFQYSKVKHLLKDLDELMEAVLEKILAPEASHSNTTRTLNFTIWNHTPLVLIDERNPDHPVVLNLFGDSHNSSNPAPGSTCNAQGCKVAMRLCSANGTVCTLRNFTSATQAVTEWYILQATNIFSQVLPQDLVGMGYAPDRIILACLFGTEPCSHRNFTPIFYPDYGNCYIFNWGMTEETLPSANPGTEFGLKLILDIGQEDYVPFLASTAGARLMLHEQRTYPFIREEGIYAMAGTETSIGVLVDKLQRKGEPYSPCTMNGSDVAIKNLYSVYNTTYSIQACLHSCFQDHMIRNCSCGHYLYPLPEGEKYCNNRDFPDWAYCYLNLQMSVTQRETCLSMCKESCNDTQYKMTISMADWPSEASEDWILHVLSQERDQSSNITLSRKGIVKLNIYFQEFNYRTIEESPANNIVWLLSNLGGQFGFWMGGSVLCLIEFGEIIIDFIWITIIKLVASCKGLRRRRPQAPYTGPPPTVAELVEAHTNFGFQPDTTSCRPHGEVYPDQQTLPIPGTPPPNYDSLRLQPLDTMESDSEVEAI
UniProt Q9WU39, whole entry: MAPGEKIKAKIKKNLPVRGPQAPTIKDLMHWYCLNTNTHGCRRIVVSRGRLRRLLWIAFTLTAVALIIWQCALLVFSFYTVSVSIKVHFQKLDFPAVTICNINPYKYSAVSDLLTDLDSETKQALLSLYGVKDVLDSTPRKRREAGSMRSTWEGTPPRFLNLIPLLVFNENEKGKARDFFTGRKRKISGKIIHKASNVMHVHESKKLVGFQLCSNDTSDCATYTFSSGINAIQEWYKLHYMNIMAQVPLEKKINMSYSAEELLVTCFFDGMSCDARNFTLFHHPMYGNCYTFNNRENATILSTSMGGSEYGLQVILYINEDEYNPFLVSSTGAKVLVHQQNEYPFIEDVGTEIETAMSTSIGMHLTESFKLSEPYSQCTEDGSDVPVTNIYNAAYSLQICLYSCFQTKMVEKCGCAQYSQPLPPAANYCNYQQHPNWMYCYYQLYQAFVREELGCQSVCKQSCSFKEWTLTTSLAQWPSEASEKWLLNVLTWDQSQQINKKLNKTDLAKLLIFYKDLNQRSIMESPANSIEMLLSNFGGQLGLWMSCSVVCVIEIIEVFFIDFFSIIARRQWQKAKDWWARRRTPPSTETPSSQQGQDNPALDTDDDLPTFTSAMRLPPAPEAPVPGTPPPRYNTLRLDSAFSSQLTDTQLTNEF

Target: ENaC (Epithelial Sodium Channel) (Mus musculus, UniProt Q61180+Q9WU38+Q9WU39)
Test: Ussing chamber: inhibition of amiloride sensitive short circuit current (I_sc) in M-1 cells
Settings: mouse kidney M-1 cells
Description: Mouse kidney M-1 cells were cultivated in DMEM containing 5% FCS and 5 μM dexamethasone for 10 to 12 days on polyester transwell filters. Filters were inserted into a teflon-coated well-plate which fit into the in-house ussing chamber system. Prior to measurement the medium of M-1 cells was replaced with Caco-2 transport buffer (Invitrogen, Germany). During measurements, the Ussing chamber temperature was kept at 37° C. Short circuit currents (I_sc) were measured in the voltage-clamp mode using an in-house built amplifier (Boehringer Ingelheim, Biberach) with the software package Lab View for data acquisition and analysis. The transepithelial electrical resistance (TEER) was determined by the application of voltage steps of ±5 mV every 5 sec. Compounds were administered at a final concentration of 3 μM or at increasing concentrations (1-3-10 μM) to the apical solution. At the end of each experiment the amiloride sensitive I_SC was measured by adding 3 μM amiloride to the apical compartment. Results are expressed as inhibition in percent of the amiloride effect or as IC50. With the example compounds given above, the following IC50 values were determined in the Ussing Chamber assay: […]

IC50: 0.015 µM
SMILES: CN(C)CCCN(CCCN(C)C)C(=O)c1ccc(CN2CCC(NC(N)=NC(=O)c3nc(Cl)c(N)nc3N)CC2)cc1
